From US8007737B2, “Use of antioxidants to prevent oxidation and reduce drug degradation in drug eluting medical devices” (Wyeth, priority 2004, dated 2011)
For at least one compound, name, drawing or mass did not settle the structure.

What was measured:
[1] = test system: monocyte chemotactic protein (MCP-1); assay: Cytokine levels in vascular tissue after delivery from a stent; assay type: in vivo; conditions: delivered from a stent
[2] = In vitro release kinetics from layered rapamycin, Panzem and polymeric coating; assay type: physicochemical; conditions: inner layer Panzem/EVA/BMA, outer layer rapamycin/EVA/BMA, no topcoat
[3] = Drug concentration in liquid formulations by liquid chromatography / HPLC; assay type: physicochemical
From the text: In accordance with exemplary embodiments of the present invention, a series of liquid formulations were developed for the local or regional delivery of water insoluble compounds such as sirolimus and its analogs, including CCI-779, ABT-578 and everolimus, through weeping balloons and catheter injection needles. […] These liquid formulations increase the apparent solubility of the pharmacologically active but water insoluble compounds by two to four orders of magnitude as compared to the solubility limits of the compounds in water. These liquid formulations rely on the use of a very small amount of organic solvents such as Ethanol (typically less than two percent) and a larger amount of safe amphiphilic (of or relating to a molecule having a polar, water soluble group attached to a non-polar, water insoluble […]) excipients such as polyethylene glycol (PEG 200, PEG 400) and vitamin E TPGS to enhance the solubility of the compounds. These liquid formulations of highly water insoluble compounds are stable and readily flowable at room temperature. Certain excipients, such as Vitamin E TPGS and BHT may be utilized to enhance the storage stability of sirolimus compounds through their anti-oxidation properties.
Table 8, shown below, summarizes the concentrations of the excipient, the co-solvents and the drug for four different liquid formulations in accordance with exemplary embodiments of the present invention.
As set forth above, a liquid formulation comprising 4 mg/ml of sirolimus may be achieved utilizing PEG 200 as the excipient and ethanol and water as the co-solvents. […] The high concentration of sirolimus is necessary to maintain an effective and high local concentration of sirolimus after delivery to the site. The liquid formulations are flowable at room temperature and are compatible with a number of delivery devices. […]

**Q.** With `CO[C@H]1C[C@@H]2CC[C@@H](C)[C@@](O)(O2)C(=O)C(=O)N2CCCC[C@H]2C(=O)O[C@H]([C@H](C)C[C@@H]2CC[C@@H](O)[C@H](OC)C2)CC(=O)[C@H](C)/C=C(\C)[C@@H](O)[C@@H](OC)C(=O)[C@H](C)C[C@H](C)/C=C/C=C/C=C/1C` [Rapamycin, rapamycin] as the molecule, how does the “monocyte chemotactic protein (MCP-1) levels in the vascular wall” value [1] read?
**A.** The value was “highly effective in reducing”.

**Q.** And the “in vitro elution from layered coating” value [2]?
**A.** Its value is “elutes more slowly than Panzem®”.

**Q.** What about the “dilution with water before precipitation starts” value ([3]; 4 mg/ml formulation with PEG 200) of the same molecule?
**A.** The value was “five to ten”.

**Q.** What about the “concentration of sirolimus achieved” value ([3]; ethanol two percent, water twenty-five percent, PEG 200 seventy-five percent) of the same molecule?
**A.** The value was 4000 µg/mL.

**Q.** What about the “concentration in the final solution (HPLC assay)” value ([3]; water and ethanol (less than two percent) as co-solvents, Vitamin E TPGS as excipient) of the same molecule?
**A.** The value was 15000 µg/mL.
